According to PubChem BioAssay AID504834 (National Center for Advancing Translational Sciences (NCATS), 2011):
About 22,000 (6.9%) of roughly 320,000 compounds were called active. The shares of active, inactive and inconclusive entries below differ from those in the screen. Calls come from the whole dose curve; as a rule, active = well fitted inhibition curve with a large enough effect; inconclusive = small, poorly fitted or top-dose-only effect, or another doubt; inactive = no such curve, though single readings can be large or run the other way. Potencies beside an inconclusive call are fits to weak or partial responses and may not hold up.

Experiment: Primary qHTS for delayed death inhibitors of the malarial parasite plastid, 96 hour incubation
Settings: P. falciparum luciferase reporter growth; series mostly up to 28.7 µM
Procedure, shortened: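 Delayed-death screen, second-generation endpoint: infected erythrocytes, 2% hematocrit, 0.05% parasitemia final; 96 hours at 37 C, 5% CO2; luciferase detection reagent; luminescence decrease equals reduced growth.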
Potency is the fitted concentration of half-maximal effect.

Structure (SMILES)	Potency
CN1CCN(S(=O)(=O)c2cccc(C(=O)N3CCN(c4ccccc4F)CC3)c2)CC1	inactive
O=C(CN1C(=O)c2cccc([N+](=O)[O-])c2C1=O)N1CCN(c2ccc(F)cc2)CC1	inconclusive: 5.22 µM [inhibitor, partial curve, poor fit]
O=C1NC(c2ccccc2)=C(c2ccc3ccccc3n2)C(c2ccncc2)N1 (stereo not drawn)	inconclusive: 18.5 µM [inhibitor, single point]
CCOC(=O)C1=CC[C@@H](c2cccc(C)c2)N(S(=O)(=O)c2ccc(C)cc2)[C@H]1C(=O)OCC	inconclusive: 4.65 µM [inhibitor, partial curve]
Oc1ccc(C=NCCc2ccccc2)cc1	inconclusive: 0.0657 µM [inhibitor, full curve, poor fit]
N=c1n(Cc2ccccc2)c2ccccc2n1Cc1ccccc1	inconclusive: 11.7 µM [inhibitor, single point]
CC(=O)c1sc(NC(=O)Cc2c(F)cccc2Cl)nc1C	inactive
COC(=O)c1c(NC(=O)COC(=O)Cn2cnc3ccccc32)sc2c1CCCC2	inactive
CC1CCN(CCNC(=S)Nc2ccc(Cl)cc2)CC1	inconclusive: 4.15 µM [inhibitor, single point]
C[C@H](NC(=O)OCc1ccccc1)c1nnc([C@H](Cc2ccccc2)NC(=O)OC(C)(C)C)o1	inconclusive: 18.5 µM [inhibitor, single point]
O=C(C1=C[C@H](c2coc3ccccc3c2=O)C[C@H](OCc2ccc(CO)cc2)O1)N1CCN(Cc2ccc3c(c2)OCO3)CC1	active: 1.31 µM
COc1ccc(OC)c(NC(=O)C2CCCN2S(=O)(=O)c2cccc3nsnc23)c1 (stereo not drawn)	active: 13.1 µM
COc1ccc(Cl)cc1NC(=O)CCN1C(=O)C2C3CCC(C3)C2C1=O (stereo not drawn)	inactive
CCCOc1ccc(CN(CCO)CCO)cc1C(=O)OC	active: 8.28 µM
O=C(NCc1cccnc1)c1ccc([N+](=O)[O-])o1	inconclusive: 18.5 µM [inhibitor, single point]
NC(=O)c1ccccc1NC(=O)N1CCOCC1	inconclusive: 11.7 µM [inhibitor, single point]
COc1ccc(C2=NN(C(=O)c3ccco3)C(c3ccco3)C2)cc1OC (stereo not drawn)	inactive
COC(=O)CCNc1ccc2c(c1)OCCO2	inconclusive: 9.28 µM [inhibitor, partial curve, poor fit]
COc1ccc(C(=O)Nc2ccc3c(c2)n(C)c(=O)n3C)cc1OC	inactive
Cc1ccc(N2C(=O)c3cccc4c(N)ccc(c34)C2=O)c2cccnc12	inconclusive: 0.0029 µM [inhibitor, full curve, poor fit]
Cc1ccc(C)c(N2CCN(C(=O)c3ccc(Cn4c(=O)[nH]c5ccccc5c4=O)cc3)CC2)c1	inconclusive: 11.7 µM [inhibitor, partial curve]
CNC(=S)N/N=C/c1cc(C)n(-c2ccc(Cl)c(Cl)c2)c1C	active: 9.28 µM

Structure (SMILES)	Potency
O=C(NCCC1CCCCN1S(=O)(=O)c1ccc(F)cc1)C(=O)NCCN1CCOCC1 (stereo not drawn)	inconclusive: 18.5 µM [inhibitor, single point]
CC(C)(C)c1ccc(C(=O)c2c[nH]c(C(=O)NCc3ccco3)c2)cc1	inconclusive: 7.38 µM [inhibitor, partial curve, poor fit]
CCN1C[C@]2(COC)[C@H](O)C[C@H](OC)[C@]34C1C([C@H](OC)[C@H]23)[C@]1(OC(C)=O)C2[C@@H](OC(=O)c3ccccc3)C(O)(C[C@H]24)[C@@H](OC)[C@@H]1O	inconclusive: 19 µM [inhibitor, single point]
Fc1ccc(-n2cc(-c3ccccc3)c3c(=S)nc[nH]c32)cc1	inconclusive: 11.7 µM [inhibitor, single point]
Cn1c(=O)c2ncn(CC(=O)N/N=C/c3ccco3)c2n(C)c1=O	active: 5.86 µM
Cc1ccc(C(C)n2cc(C(=O)NCc3cccnc3)nn2)cc1 (stereo not drawn)	inactive
O=C(c1cccn2c(=O)c3cc4ccccc4cc3nc12)N1CCN(c2ccccc2)CC1	inconclusive: 9.28 µM [inhibitor, single point]
Cc1cccc(NC(=O)c2ccc3c(c2)OCCO3)c1C	inactive
Cc1cccn2c(=O)c3cc(C(=O)NC4CCCCC4)c(=N)n(Cc4ccc(F)cc4)c3nc12	inconclusive: 1.17 µM [inhibitor, full curve, poor fit]
CC(=O)c1cccc(NC(=O)C(OC(=O)c2ccccc2NS(=O)(=O)c2cccs2)c2ccccc2)c1 (stereo not drawn)	inconclusive: 16.5 µM [inhibitor, partial curve, poor fit]
O=C(NCc1ccccc1)C(c1ccco1)N(C(=O)c1ccccn1)c1ccccc1 (stereo not drawn)	inactive
Cc1cccc(CN2CCC(C(N)=O)CC2)c1	inconclusive: 0.0928 µM [inhibitor, partial curve, poor fit]
CC(OC(=O)C1CCCO1)C(=O)NC1CCCC1 (stereo not drawn)	inconclusive: 18.5 µM [inhibitor, single point]
CC(C)Oc1ccc(S(=O)(=O)N2CCCCC2)cc1NC(=O)C1CSC2(C)CCC(=O)N12 (stereo not drawn)	inconclusive: 10.4 µM [inhibitor, single point]
CCOc1cccc(-c2c(C(=O)N/N=C/c3ccco3)nnn2-c2nonc2N)c1	inconclusive: 18.5 µM [inhibitor, single point]
O=C(/C=C/c1ccco1)OCC(=O)c1cccc([N+](=O)[O-])c1	inconclusive: 14.7 µM [inhibitor, single point]
C=CCn1c(SCC(=O)Nc2nc3ccccc3s2)nnc1-c1ccccc1O	inconclusive: 18.5 µM [inhibitor, single point]
Nc1nc(-c2ccc(Cl)cc2)nn1C(=O)c1cccs1	active: 13.1 µM
COc1ccc(C(C)NC(=O)C2CCCC2)cc1 (stereo not drawn)	inconclusive: 18.5 µM [inhibitor, single point]
Cc1c(C(=O)C(=O)NCc2ccco2)c2ccccc2n1C	inactive
CC(C)CNC(=O)Nc1ccccc1F	inconclusive: 10.4 µM [inhibitor, single point]

Of the compounds above, these have a tert-butyl group:
Structure (SMILES)	Potency
C[C@H](NC(=O)OCc1ccccc1)c1nnc([C@H](Cc2ccccc2)NC(=O)OC(C)(C)C)o1	inconclusive: 18.5 µM [inhibitor, single point]
CC(C)(C)c1ccc(C(=O)c2c[nH]c(C(=O)NCc3ccco3)c2)cc1	inconclusive: 7.38 µM [inhibitor, partial curve, poor fit]
